Laboratory results: the supplement of paper PMC12823440, “Inhibitors supercharge kinase turnover through native proteolytic circuits” (Nature, 2025)
Counter-ions that a name gives are not always drawn. This is one part of the list. Hit calls seldom repeat between salt and free forms of one compound.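 Kinases, fused to nanoluciferase, were expressed in K562 cells; luminescence was measured every 4 h from 2 to 18 h as percent of control (DMSO = 100%, positive control = 0%). A time point is decreased if signal falls significantly (2 sigma). Hits were called by the authors by a rule that is not shown; the count of time points alone does not decide it.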

Sequences of proteins named here, by UniProt entry; tags and fusion partners are left off. A change or cut given only in a name is not applied to a line headed by its entry.
UniProt O75460: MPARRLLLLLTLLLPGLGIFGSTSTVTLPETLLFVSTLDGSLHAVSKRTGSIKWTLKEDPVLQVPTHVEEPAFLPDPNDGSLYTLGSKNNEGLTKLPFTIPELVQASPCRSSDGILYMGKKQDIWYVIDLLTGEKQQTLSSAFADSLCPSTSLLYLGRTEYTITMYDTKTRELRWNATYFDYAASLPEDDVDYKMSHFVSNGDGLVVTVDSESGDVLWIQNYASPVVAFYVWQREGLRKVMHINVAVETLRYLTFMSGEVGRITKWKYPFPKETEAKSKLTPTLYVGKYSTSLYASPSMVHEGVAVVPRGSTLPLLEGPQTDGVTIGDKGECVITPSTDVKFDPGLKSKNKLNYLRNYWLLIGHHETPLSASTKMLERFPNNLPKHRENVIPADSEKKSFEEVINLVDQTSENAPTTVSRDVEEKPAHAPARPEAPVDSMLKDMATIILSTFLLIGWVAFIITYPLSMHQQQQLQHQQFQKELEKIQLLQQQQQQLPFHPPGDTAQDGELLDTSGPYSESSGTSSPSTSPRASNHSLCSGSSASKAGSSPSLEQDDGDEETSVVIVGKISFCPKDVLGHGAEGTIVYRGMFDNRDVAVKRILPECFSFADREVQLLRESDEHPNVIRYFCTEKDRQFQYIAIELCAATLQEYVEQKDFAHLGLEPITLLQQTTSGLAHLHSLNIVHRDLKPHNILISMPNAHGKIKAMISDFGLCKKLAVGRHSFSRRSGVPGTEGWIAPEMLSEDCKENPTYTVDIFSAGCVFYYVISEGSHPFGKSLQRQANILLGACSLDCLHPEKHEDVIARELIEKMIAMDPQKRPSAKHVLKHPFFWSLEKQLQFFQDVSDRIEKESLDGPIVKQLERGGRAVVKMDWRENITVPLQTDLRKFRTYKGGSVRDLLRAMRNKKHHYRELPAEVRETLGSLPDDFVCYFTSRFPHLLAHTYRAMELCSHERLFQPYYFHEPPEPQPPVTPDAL
UniProt P11362, whole entry, looked up: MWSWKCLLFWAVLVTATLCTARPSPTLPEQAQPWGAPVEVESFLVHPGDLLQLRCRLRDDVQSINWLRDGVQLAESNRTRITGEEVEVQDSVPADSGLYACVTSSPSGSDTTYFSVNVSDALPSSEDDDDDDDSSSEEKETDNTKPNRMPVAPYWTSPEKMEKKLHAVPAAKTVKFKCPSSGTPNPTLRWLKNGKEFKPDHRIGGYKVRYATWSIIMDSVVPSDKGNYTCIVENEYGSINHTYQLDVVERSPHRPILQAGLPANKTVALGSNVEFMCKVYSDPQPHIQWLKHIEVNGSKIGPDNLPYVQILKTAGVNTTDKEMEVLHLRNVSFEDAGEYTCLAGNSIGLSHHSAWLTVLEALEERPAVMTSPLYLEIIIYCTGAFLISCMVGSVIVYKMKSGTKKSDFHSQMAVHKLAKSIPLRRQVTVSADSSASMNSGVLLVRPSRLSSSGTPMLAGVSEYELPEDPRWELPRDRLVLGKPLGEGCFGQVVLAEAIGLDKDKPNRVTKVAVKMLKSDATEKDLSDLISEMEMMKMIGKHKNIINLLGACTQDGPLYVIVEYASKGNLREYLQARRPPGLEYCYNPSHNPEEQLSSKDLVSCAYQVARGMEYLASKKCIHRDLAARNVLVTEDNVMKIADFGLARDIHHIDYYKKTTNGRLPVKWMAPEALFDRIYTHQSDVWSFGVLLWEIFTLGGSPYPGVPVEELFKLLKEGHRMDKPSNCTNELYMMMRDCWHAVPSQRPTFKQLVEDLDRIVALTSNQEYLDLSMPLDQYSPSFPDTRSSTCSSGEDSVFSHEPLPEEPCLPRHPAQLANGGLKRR
UniProt P21802, whole entry, looked up: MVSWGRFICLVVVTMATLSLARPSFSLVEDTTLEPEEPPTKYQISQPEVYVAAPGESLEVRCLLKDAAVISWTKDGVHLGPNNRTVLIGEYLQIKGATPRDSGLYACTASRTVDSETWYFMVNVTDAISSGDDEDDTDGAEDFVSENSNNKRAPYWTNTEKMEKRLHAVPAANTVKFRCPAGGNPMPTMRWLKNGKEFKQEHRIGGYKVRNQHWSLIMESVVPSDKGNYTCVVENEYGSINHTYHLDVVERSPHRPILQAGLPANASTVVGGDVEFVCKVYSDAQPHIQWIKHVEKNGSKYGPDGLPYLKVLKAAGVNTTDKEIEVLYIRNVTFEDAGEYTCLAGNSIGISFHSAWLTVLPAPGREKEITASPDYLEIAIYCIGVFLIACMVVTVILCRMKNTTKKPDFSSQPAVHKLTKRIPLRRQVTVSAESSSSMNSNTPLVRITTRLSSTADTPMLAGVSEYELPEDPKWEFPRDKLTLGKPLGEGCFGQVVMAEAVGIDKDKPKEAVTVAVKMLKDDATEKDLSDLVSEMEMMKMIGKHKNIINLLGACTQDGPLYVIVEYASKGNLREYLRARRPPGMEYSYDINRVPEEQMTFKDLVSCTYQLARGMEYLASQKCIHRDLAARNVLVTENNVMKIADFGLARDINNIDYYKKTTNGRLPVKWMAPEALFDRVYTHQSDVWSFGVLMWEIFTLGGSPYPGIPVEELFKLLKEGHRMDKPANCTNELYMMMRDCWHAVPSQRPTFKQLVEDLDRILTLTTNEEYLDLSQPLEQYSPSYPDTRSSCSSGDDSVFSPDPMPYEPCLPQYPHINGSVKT
UniProt P22607, whole entry, looked up: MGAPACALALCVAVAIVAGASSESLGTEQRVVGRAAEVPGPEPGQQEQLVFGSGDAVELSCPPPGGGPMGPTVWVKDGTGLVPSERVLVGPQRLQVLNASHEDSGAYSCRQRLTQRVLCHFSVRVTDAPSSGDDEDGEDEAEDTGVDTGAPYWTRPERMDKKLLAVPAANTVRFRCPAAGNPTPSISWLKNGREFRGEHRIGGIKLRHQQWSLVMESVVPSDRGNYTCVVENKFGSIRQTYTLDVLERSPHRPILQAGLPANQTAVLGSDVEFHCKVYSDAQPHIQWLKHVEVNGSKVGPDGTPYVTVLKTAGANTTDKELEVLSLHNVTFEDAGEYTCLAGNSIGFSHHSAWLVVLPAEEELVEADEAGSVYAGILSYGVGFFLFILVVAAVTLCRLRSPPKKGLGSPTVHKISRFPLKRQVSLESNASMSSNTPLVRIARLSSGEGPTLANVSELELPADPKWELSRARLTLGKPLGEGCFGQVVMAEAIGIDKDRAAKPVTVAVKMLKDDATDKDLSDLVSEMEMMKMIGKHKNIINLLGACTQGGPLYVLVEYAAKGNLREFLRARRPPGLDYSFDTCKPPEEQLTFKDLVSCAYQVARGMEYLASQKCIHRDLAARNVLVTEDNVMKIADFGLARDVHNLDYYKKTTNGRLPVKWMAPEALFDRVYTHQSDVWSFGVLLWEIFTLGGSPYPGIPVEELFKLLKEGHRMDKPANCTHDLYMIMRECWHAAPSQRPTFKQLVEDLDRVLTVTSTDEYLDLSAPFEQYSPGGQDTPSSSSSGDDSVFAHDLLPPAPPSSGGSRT
UniProt P36888, whole entry: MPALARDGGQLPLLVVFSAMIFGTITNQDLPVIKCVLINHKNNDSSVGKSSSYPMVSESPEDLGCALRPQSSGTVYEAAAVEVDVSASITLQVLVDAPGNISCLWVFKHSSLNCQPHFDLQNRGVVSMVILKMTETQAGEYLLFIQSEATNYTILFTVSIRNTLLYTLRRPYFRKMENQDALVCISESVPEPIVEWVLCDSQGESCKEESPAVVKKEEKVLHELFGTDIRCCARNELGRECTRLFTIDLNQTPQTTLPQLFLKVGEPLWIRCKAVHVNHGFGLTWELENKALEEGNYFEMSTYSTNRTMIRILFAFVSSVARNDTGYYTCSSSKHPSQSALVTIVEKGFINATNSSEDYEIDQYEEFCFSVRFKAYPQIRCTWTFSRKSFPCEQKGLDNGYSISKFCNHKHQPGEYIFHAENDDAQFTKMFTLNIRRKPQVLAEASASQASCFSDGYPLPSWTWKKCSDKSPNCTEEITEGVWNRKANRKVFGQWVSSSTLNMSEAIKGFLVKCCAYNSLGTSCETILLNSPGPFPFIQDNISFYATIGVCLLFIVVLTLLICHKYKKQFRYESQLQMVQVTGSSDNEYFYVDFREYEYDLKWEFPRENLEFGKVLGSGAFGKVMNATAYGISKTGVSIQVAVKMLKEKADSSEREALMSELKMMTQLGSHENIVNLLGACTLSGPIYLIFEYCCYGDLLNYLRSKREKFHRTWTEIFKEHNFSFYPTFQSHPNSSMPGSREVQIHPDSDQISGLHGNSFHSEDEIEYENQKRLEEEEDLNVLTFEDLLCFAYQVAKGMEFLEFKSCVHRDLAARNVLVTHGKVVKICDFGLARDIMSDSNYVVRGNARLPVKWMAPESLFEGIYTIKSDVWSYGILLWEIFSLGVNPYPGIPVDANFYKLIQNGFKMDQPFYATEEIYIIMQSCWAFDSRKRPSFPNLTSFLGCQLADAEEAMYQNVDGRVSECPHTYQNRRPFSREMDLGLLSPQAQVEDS
UniProt P06241, whole entry, looked up: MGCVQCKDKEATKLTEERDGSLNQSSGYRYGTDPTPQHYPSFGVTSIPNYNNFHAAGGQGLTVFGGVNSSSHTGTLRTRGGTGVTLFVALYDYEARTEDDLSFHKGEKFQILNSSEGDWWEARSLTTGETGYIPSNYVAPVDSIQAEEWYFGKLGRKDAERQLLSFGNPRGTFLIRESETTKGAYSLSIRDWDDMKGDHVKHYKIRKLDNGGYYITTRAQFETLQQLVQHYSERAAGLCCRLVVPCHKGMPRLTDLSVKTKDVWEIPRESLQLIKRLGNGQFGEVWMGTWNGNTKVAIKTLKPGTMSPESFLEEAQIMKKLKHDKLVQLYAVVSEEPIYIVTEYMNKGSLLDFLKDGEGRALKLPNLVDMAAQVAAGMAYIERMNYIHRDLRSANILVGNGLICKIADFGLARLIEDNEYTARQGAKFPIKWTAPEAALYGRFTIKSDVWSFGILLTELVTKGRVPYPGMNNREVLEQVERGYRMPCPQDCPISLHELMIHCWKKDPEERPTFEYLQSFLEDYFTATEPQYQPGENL
UniProt P49840: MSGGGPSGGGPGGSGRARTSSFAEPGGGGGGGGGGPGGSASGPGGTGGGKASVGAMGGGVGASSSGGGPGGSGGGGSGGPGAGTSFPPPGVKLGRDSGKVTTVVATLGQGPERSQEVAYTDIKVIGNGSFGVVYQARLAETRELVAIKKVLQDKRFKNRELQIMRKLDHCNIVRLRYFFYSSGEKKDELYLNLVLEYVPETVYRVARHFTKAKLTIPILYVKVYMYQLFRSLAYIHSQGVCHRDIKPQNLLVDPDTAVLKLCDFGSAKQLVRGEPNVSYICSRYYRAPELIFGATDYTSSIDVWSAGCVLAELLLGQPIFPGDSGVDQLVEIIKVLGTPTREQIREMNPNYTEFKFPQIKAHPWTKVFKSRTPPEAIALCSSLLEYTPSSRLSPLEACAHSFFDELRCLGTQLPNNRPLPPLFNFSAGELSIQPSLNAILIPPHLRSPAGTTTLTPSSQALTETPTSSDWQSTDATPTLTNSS

How the values were obtained:
Assay in all cases: kinase-Nluc reporter destabilization hit call (1 = scored as downregulated) (binary); higher = compound decreases kinase abundance
Settings in all cases: K562; 2-18 h
ERN1 = ERN1 (UniProt O75460)
FGFR1 = FGFR1 (UniProt P11362)
FGFR2 = FGFR2 (UniProt P21802)
FGFR3 = FGFR3 (UniProt P22607)
FGR = FGR (UniProt P09769)
FLT3 = FLT3 (UniProt P36888)
FYN = FYN (UniProt P06241)
GSK3A = GSK3A (UniProt P49840)
HER2 = HER2 (UniProt P04626)
INSRR = INSRR (UniProt P14616)

Compound | kinase-Nluc reporter destabilization hit call (ERN1) | kinase-Nluc reporter destabilization hit call (FGFR1) | kinase-Nluc reporter destabilization hit call (FGFR2) | kinase-Nluc reporter destabilization hit call (FGFR3) | kinase-Nluc reporter destabilization hit call (FGR) | kinase-Nluc reporter destabilization hit call (FLT3) | kinase-Nluc reporter destabilization hit call (FYN) | kinase-Nluc reporter destabilization hit call (GSK3A) | kinase-Nluc reporter destabilization hit call (HER2) | kinase-Nluc reporter destabilization hit call (INSRR)
CNC(=O)c1cc2c(Oc3ccc(NC(=O)C4(C(=O)Nc5ccc(F)cc5)CC4)cc3)ccnc2cc1OC (2.5 µM) | inactive: 0 | inactive: 0 | inactive: 0 | inactive: 0 | inactive: 0 | inactive: 0 | inactive: 0 | inactive: 0 | inactive: 0 | inactive: 0
O=C1OC(/C=C/c2ccccc2)=NC/1=C\c1cccnc1 (10 µM) | inactive: 0 | inactive: 0 | inactive: 0 | inactive: 0 | inactive: 0 | inactive: 0 | inactive: 0 | inactive: 0 | inactive: 0 | inactive: 0
O=C(O)c1ccc(/C=C/S(=O)(=O)Cc2ccc(Cl)cc2)cc1 [Recilisib] (10 µM) | inactive: 0 | inactive: 0 | inactive: 0 | inactive: 0 | inactive: 0 | inactive: 0 | inactive: 0 | inactive: 0 | inactive: 0 | inactive: 0
COC(=O)[C@H](CCSC)NC(=O)c1ccc(NC[C@@H](N)CS)cc1-c1ccccc1 [FTI-277 (hydrochloride)] (10 µM) | inactive: 0 | inactive: 0 | inactive: 0 | inactive: 0 | inactive: 0 | inactive: 0 | inactive: 0 | inactive: 0 | inactive: 0 | inactive: 0
Cc1cccc(COc2cccc(/C=C3\C(=O)NN(c4ccccc4)C3=O)c2)c1 (10 µM) | inactive: 0 | inactive: 0 | inactive: 0 | inactive: 0 | inactive: 0 | inactive: 0 | inactive: 0 | inactive: 0 | inactive: 0 | inactive: 0
O=c1[nH]ccc2nc(-c3ccc(CN4CCC(c5nc(-c6ccccn6)n[nH]5)CC4)cc3)c(-c3ccccc3)cc12 (10 µM) | inactive: 0 | inactive: 0 | inactive: 0 | inactive: 0 | inactive: 0 | inactive: 0 | inactive: 0 | inactive: 0 | inactive: 0 | inactive: 0
NC(=O)c1cnc(-c2ccc(C3(N)CCC3)cc2)c(-c2ccccc2)c1 (10 µM) | inactive: 0 | inactive: 0 | inactive: 0 | inactive: 0 | inactive: 0 | inactive: 0 | inactive: 0 | inactive: 0 | inactive: 0 | inactive: 0
CC(Sc1nc2c(cnn2-c2cccc(Cl)c2)c(=O)[nH]1)C(N)=O (stereo not given) (10 µM) | inactive: 0 | inactive: 0 | inactive: 0 | inactive: 0 | inactive: 0 | inactive: 0 | inactive: 0 | inactive: 0 | inactive: 0 | inactive: 0
COc1cc(-c2cc(OP(=O)(O)O)cc(-c3cc(OC)c(OC)c(OC)c3)c2)cc(OC)c1OC [Stafia-1] (10 µM) | inactive: 0 | inactive: 0 | inactive: 0 | inactive: 0 | inactive: 0 | inactive: 0 | inactive: 0 | inactive: 0 | inactive: 0 | inactive: 0
CCc1c[nH]c2ncnc(N3CC[C@](N)(CNC(=O)c4ccc(F)cc4F)C3)c12 (10 µM) | inactive: 0 | inactive: 0 | inactive: 0 | inactive: 0 | inactive: 0 | inactive: 0 | inactive: 0 | inactive: 0 | inactive: 0 | inactive: 0
C=CC(=O)Nc1ccc(C(=O)Nc2[nH]nc3c2CN(C(=O)N[C@H](CN(C)C)c2ccccc2)C3(C)C)cc1 (10 µM) | inactive: 0 | inactive: 0 | inactive: 0 | inactive: 0 | inactive: 0 | inactive: 0 | inactive: 0 | inactive: 0 | inactive: 0 | active: 1
CCC(=O)Nc1cccc(Oc2nc(Nc3ccc(N4CCN(C)CC4)cc3OC)ncc2Cl)c1 (10 µM) | inactive: 0 | inactive: 0 | inactive: 0 | inactive: 0 | inactive: 0 | inactive: 0 | inactive: 0 | inactive: 0 | inactive: 0 | inactive: 0
COCCOc1ccc2c(c1)ncn2-c1ccc2cccc(N3CCC(N)CC3)c2n1 (10 µM) | inactive: 0 | inactive: 0 | inactive: 0 | inactive: 0 | inactive: 0 | inactive: 0 | inactive: 0 | inactive: 0 | inactive: 0 | inactive: 0
Cc1cc(-n2c(=O)ccc3c[nH]c4nccc-4c32)ccc1F (10 µM) | inactive: 0 | inactive: 0 | inactive: 0 | inactive: 0 | inactive: 0 | inactive: 0 | inactive: 0 | inactive: 0 | inactive: 0 | inactive: 0
Nc1nc(N)c2nc(-c3cccc(O)c3)c(-c3cccc(O)c3)nc2n1 (10 µM) | inactive: 0 | inactive: 0 | inactive: 0 | inactive: 0 | inactive: 0 | inactive: 0 | inactive: 0 | inactive: 0 | inactive: 0 | inactive: 0
CCCCCc1ccc(/C=C/[C@H](O)[C@@H](CO)NC)cc1 [SK1-I (hydrochloride)] (10 µM) | inactive: 0 | inactive: 0 | inactive: 0 | inactive: 0 | inactive: 0 | inactive: 0 | inactive: 0 | inactive: 0 | inactive: 0 | inactive: 0
Cc1cc(Nc2cc(N3CCN(C)CC3)nc(Nc3ccc([N+](=O)[O-])cc3)n2)n[nH]1 (2.5 µM) | inactive: 0 | inactive: 0 | inactive: 0 | inactive: 0 | inactive: 0 | inactive: 0 | inactive: 0 | inactive: 0 | inactive: 0 | inactive: 0
CCN1CCN(Cc2cnc(Nc3cc(-c4cc(F)c5nc(C)n(C(C)C)c5c4)c(F)cn3)nc2)CC1 (10 µM) | inactive: 0 | inactive: 0 | inactive: 0 | inactive: 0 | inactive: 0 | inactive: 0 | inactive: 0 | inactive: 0 | inactive: 0 | inactive: 0
COc1cc(N2CCOCC2)ccc1Nc1ncc(F)c(Nc2ccccc2NS(C)(=O)=O)n1 (10 µM) | inactive: 0 | inactive: 0 | inactive: 0 | inactive: 0 | inactive: 0 | inactive: 0 | inactive: 0 | inactive: 0 | inactive: 0 | inactive: 0
CC(Cc1ccc(O)c(O)c1)C(C)Cc1ccc(O)c(O)c1 (stereo not given) [Nordihydroguaiaretic acid] (2.5 µM) | inactive: 0 | inactive: 0 | inactive: 0 | inactive: 0 | inactive: 0 | inactive: 0 | inactive: 0 | inactive: 0 | inactive: 0 | inactive: 0
COc1ccc(Br)cc1NC(=O)Nc1cccc2c1ccn2Cc1ccnc(N)c1 (2.5 µM) | inactive: 0 | inactive: 0 | inactive: 0 | inactive: 0 | inactive: 0 | inactive: 0 | inactive: 0 | inactive: 0 | inactive: 0 | inactive: 0
C[C@@H](Nc1ncnc2[nH]c(-c3ccc(O)cc3)cc12)c1ccccc1 (2.5 µM) | inactive: 0 | inactive: 0 | inactive: 0 | inactive: 0 | inactive: 0 | inactive: 0 | inactive: 0 | inactive: 0 | inactive: 0 | inactive: 0
Brc1ccc(CSc2nc3ccccc3o2)cc1 [BMP signaling agonist sb4] (10 µM) | inactive: 0 | inactive: 0 | inactive: 0 | inactive: 0 | inactive: 0 | inactive: 0 | inactive: 0 | inactive: 0 | inactive: 0 | inactive: 0
COc1ccc(Nc2ncc(C(F)(F)F)c(NC3CC3)n2)cc1OC (10 µM) | inactive: 0 | inactive: 0 | inactive: 0 | inactive: 0 | inactive: 0 | inactive: 0 | inactive: 0 | inactive: 0 | inactive: 0 | inactive: 0
c1nn(C2CCOCC2)cc1Nc1ncc2nnn(-c3ccc4cn[nH]c4c3)c2n1 (10 µM) | inactive: 0 | inactive: 0 | inactive: 0 | inactive: 0 | inactive: 0 | inactive: 0 | inactive: 0 | inactive: 0 | inactive: 0 | inactive: 0
C=C1C(=O)[C@@]23[C@H](O)C[C@@H]4C(C)(C)C(=O)CC[C@@]4(C)[C@@H]2CC[C@@H]1[C@H]3O [Glaucocalyxin A] (2.5 µM) | inactive: 0 | inactive: 0 | inactive: 0 | inactive: 0 | inactive: 0 | inactive: 0 | inactive: 0 | inactive: 0 | inactive: 0 | inactive: 0
NS(=O)(=O)c1ccc(Nc2nc(-c3cccc(-c4ccccc4)c3)c3[nH]cnc3n2)cc1 (10 µM) | inactive: 0 | inactive: 0 | inactive: 0 | inactive: 0 | inactive: 0 | inactive: 0 | inactive: 0 | inactive: 0 | inactive: 0 | inactive: 0
C[C@@H]1O[C@@H](Oc2cc(O)c3c(=O)c(O[C@@H]4O[C@@H](C)[C@H](O)[C@@H](O)[C@H]4O)c(-c4ccc(O)cc4)oc3c2)[C@H](O)[C@H](O)[C@H]1O [Kaempferitrin] (10 µM) | inactive: 0 | inactive: 0 | inactive: 0 | inactive: 0 | inactive: 0 | inactive: 0 | inactive: 0 | inactive: 0 | inactive: 0 | inactive: 0
CO[C@H]1C[C@@H]2CC[C@@H](C)[C@@](O)(O2)C(=O)C(=O)N2CCCC[C@H]2C(=O)O[C@H]([C@H](C)C[C@@H]2CC[C@@H](OCCO)[C@H](OC)C2)CC(=O)[C@H](C)/C=C(\C)[C@@H](O)[C@@H](OC)C(=O)[C@H](C)C[C@H](C)/C=C/C=C/C=C/1C [Everolimus] (10 µM) | inactive: 0 | inactive: 0 | inactive: 0 | inactive: 0 | inactive: 0 | inactive: 0 | inactive: 0 | inactive: 0 | inactive: 0 | inactive: 0
Cc1cc(C(=O)NC(C)(C)C)cc(C#Cc2ccc3c4c(oc3c2)C(C)(C)c2cc(NS(C)(=O)=O)ccc2C4=O)n1 (10 µM) | inactive: 0 | inactive: 0 | inactive: 0 | inactive: 0 | inactive: 0 | inactive: 0 | inactive: 0 | inactive: 0 | inactive: 0 | inactive: 0

By substructure: the entries above with fluorine
Compound | kinase-Nluc reporter destabilization hit call (ERN1) | kinase-Nluc reporter destabilization hit call (FGFR1) | kinase-Nluc reporter destabilization hit call (FGFR2) | kinase-Nluc reporter destabilization hit call (FGFR3) | kinase-Nluc reporter destabilization hit call (FGR) | kinase-Nluc reporter destabilization hit call (FLT3) | kinase-Nluc reporter destabilization hit call (FYN) | kinase-Nluc reporter destabilization hit call (GSK3A) | kinase-Nluc reporter destabilization hit call (HER2) | kinase-Nluc reporter destabilization hit call (INSRR)
CNC(=O)c1cc2c(Oc3ccc(NC(=O)C4(C(=O)Nc5ccc(F)cc5)CC4)cc3)ccnc2cc1OC (2.5 µM) | inactive: 0 | inactive: 0 | inactive: 0 | inactive: 0 | inactive: 0 | inactive: 0 | inactive: 0 | inactive: 0 | inactive: 0 | inactive: 0
CCc1c[nH]c2ncnc(N3CC[C@](N)(CNC(=O)c4ccc(F)cc4F)C3)c12 (10 µM) | inactive: 0 | inactive: 0 | inactive: 0 | inactive: 0 | inactive: 0 | inactive: 0 | inactive: 0 | inactive: 0 | inactive: 0 | inactive: 0
Cc1cc(-n2c(=O)ccc3c[nH]c4nccc-4c32)ccc1F (10 µM) | inactive: 0 | inactive: 0 | inactive: 0 | inactive: 0 | inactive: 0 | inactive: 0 | inactive: 0 | inactive: 0 | inactive: 0 | inactive: 0
CCN1CCN(Cc2cnc(Nc3cc(-c4cc(F)c5nc(C)n(C(C)C)c5c4)c(F)cn3)nc2)CC1 (10 µM) | inactive: 0 | inactive: 0 | inactive: 0 | inactive: 0 | inactive: 0 | inactive: 0 | inactive: 0 | inactive: 0 | inactive: 0 | inactive: 0
COc1cc(N2CCOCC2)ccc1Nc1ncc(F)c(Nc2ccccc2NS(C)(=O)=O)n1 (10 µM) | inactive: 0 | inactive: 0 | inactive: 0 | inactive: 0 | inactive: 0 | inactive: 0 | inactive: 0 | inactive: 0 | inactive: 0 | inactive: 0
COc1ccc(Nc2ncc(C(F)(F)F)c(NC3CC3)n2)cc1OC (10 µM) | inactive: 0 | inactive: 0 | inactive: 0 | inactive: 0 | inactive: 0 | inactive: 0 | inactive: 0 | inactive: 0 | inactive: 0 | inactive: 0
